Assay results from patent EP4410284A1, “COMPOUND AND METHOD FOR THE TREATMENT OF ZELLWEGER SPECTRUM DISORDER” (Apteeus, priority 2023, dated 2024).

Experiments:
GM16513 cells = assay: Catalase import immunofluorescence, high-content screening (% importing cells); assay type: cell-based, human; conditions: 3 days
PEX405 cells = assay: as above; assay type: cell-based, human; conditions: 3 days

Compound: Cc1ccc(C(=O)NCCCCCC(=O)Nc2ccccc2N)cc1 [RG2833]
- % Importing cells (GM16513 cells; 1.3 µM): 17%
- % Importing cells (GM16513 cells; 10 µM): 43%
- % Importing cells (PEX405 cells; 1.3 µM): 5%
- % Importing cells (PEX405 cells; 10 µM): 9%
